These are yes or no findings as the source states them, for the method shown. Binding seen in cells or lysates may run through a third protein. These calls come from enrichment with a bait or labelling near it, and not all partners need be listed.
Biological target: ASFV RNA polymerase subunit vRPB2 with N-terminal TEV-cleavable His-ZZ-tag (African swine fever virus, strain BA71V) (UniProt P42487)
Assay: affinity purification with mass spectrometry + SEC

Substance | binding
ASFV RNA polymerase subunit vRPB10 (from UniProt P42488 1-80) | binds
ASFV RNA polymerase subunit vRPB1 (from UniProt P42486 1-1450) | binds

From article PMC10881513
